# Results reported in publication PMC8384837.
# Changes are numbered by the printed parent chain. The list shows a part of the results. For some assays here: At the low end of the ranking, values are background and their order means little. For some assays here: Construct or isoform of the protein are uncertain.
# Columns and labels:
# Conditions in all cases: yeast three-hybrid, YBZ-1, SC-Leu-His + 0.5 mM 3-AT, 4 days
# [1] = target: T1, PUM1 PUF domain R1-QFR R2-VFQ R7-NPG S863Q + R864F + Q867R + N899V + Y900F + S1079N + N1080P + E1083G (UniProt Q14671)
# T1 sequence: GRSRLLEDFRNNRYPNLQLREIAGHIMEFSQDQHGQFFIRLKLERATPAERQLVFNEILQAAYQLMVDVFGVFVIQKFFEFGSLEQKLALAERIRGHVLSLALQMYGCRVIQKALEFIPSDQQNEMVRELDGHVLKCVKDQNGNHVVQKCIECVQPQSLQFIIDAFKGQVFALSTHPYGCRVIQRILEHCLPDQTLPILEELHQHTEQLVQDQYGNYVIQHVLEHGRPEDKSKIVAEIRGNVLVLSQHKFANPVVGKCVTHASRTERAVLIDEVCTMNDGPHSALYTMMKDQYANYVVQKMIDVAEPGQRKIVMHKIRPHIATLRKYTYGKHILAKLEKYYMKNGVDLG
# [2] = target: T2, PUM1 PUF domain R5-PHQ R6-SWD C1007P + R1008H + N1043S + Y1044W + Q1047D (UniProt Q14671)
# T2 sequence: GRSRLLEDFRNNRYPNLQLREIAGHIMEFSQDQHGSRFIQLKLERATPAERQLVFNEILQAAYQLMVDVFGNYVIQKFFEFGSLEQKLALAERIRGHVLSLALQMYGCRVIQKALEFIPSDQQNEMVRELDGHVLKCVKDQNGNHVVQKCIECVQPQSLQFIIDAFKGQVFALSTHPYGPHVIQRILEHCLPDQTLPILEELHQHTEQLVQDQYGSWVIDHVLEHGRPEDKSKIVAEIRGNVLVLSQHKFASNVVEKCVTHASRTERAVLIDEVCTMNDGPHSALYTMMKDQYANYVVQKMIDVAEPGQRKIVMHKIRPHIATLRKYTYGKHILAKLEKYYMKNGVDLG
# [3] = target: T3, PUM1 PUF domain R6-SWD R7-NPG N1043S + Y1044W + Q1047D + S1079N + N1080P + E1083G (Homo sapiens) (UniProt Q14671)
# T3 sequence: T2 sequence with P180C, H181R, S252N, N253P, E256G
# [4] = target: T4, PUM1 PUF domain R2-VFQ R3-THE R4-TFR N899V + Y900F + C935T + R936H + Q939E + N971T + H972F + Q975R (UniProt Q14671)
# T4 sequence: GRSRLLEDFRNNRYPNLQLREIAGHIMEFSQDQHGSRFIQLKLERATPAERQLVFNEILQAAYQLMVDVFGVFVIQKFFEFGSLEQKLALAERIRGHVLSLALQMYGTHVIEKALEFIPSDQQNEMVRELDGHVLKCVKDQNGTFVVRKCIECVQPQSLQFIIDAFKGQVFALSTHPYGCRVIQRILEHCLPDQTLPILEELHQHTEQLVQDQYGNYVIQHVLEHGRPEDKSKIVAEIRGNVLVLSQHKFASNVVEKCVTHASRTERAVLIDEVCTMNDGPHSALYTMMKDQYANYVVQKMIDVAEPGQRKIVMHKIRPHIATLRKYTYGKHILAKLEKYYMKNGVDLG
sequence,measurement,setting,value
GGCUAGAACUAGUGGAUCCCCCGGCGCCCGGCGGCUCGAGCCCGGGUAAGUUGAGAUGGUCUGCAUGCCGCCGGGCGCCAUGCCUGCAGGUCGACUCUAGAAAACAUG,binding signal (log2 enrichment (interaction score)),[1],< -6.3
same,binding signal (log2 enrichment (interaction score)),[2],< -7.95
same,binding signal (log2 enrichment (interaction score)),[3],-0.56
GGCUAGAACUAGUGGAUCCCCCGGCGCCCGGCGGCUCGAGCCCGGGUAAGGUUGAGACGUCUGCAUGCCGCCGGGCGCCAUGCCUGCAGGUCGACUCUAGAAAACAUG,binding signal (log2 enrichment (interaction score)),[4],-5.54
GGCUAGAACUAGUGGAUCCCCCGGCGCCCGGCGGCUCGAGCCCGGGUAAGAUCAAGAUGUCUGCAUGCCGCCGGGCGCCAUGCCUGCAGGUCGACUCUAGAAAACAUG,binding signal (log2 enrichment (interaction score)),[4],-5.01
GGCUAGAACUAGUGGAUCCCCCGGCGCCCGGCGGCUCGAGCCCGGGUAAGUUAAGAACGUCUGCAUGCCGCCGGGCGCCAUGCCUGCAGGUCGACUCUAGAAAACAUG,binding signal (log2 enrichment (interaction score)),[4],< -6.5
GGCUAGAACUAGUGGAUCCCCCGGCGCCCGGCGGCUCGAGCCCGGGUAAGGGCUGGUAGUCUGCAUGCCGCCGGGCGCCAUGCCUGCAGGUCGACUCUAGAAAACAUG,binding signal (log2 enrichment (interaction score)),[4],-4.79
GGCUAGAACUAGUGGAUCCCCCGGCGCCCGGCGGCUCGAGCCCGGGUAAGGUGAUGACGUCUGCAUGCCGCCGGGCGCCAUGCCUGCAGGUCGACUCUAGAAAACAUG,binding signal (log2 enrichment (interaction score)),[4],-5.32
GGCUAGAACUAGUGGAUCCCCCGGCGCCCGGCGGCUCGAGCCCGGGUAAGUUUACGCCGUCUGCAUGCCGCCGGGCGCCAUGCCUGCAGGUCGACUCUAGAAAACAUG,binding signal (log2 enrichment (interaction score)),[4],-5.12
GGCUAGAACUAGUGGAUCCCCCGGCGCCCGGCGGCUCGAGCCCGGGUAAGUUGACGGCGUCUGCAUGCCGCCGGGCGCCAUGCCUGCAGGUCGACUCUAGAAAACAUG,binding signal (log2 enrichment (interaction score)),[4],-5.08
GGCUAGAACUAGUGGAUCCCCCGGCGCCCGGCGGCUCGAGCCCGGGUAAGAUGCAGUAGUCUGCAUGCCGCCGGGCGCCAUGCCUGCAGGUCGACUCUAGAAAACAUG,binding signal (log2 enrichment (interaction score)),[4],-5.77
